Experimental data: PubChem BioAssay AID652272 (Drosophila RNAi Screening Center, 2013)

Purpose: 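Finding fly genes that regulate Hedgehog signal transduction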 (primary screen)
Cell system: Drosophila clone 8 (Cl8) cells
Knock-down reagent: long dsRNA against Drosophila genes
Measurement: 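Firefly light from a Hedgehog-responsive ptc promoter reporter and Renilla reference light, both read on a plate reader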
Direction: firefly Hh reporter signal: higher = more ptc reporter light; Renilla reference signal: higher = more Renilla control light
Active means: 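Called a hit if the two-replicate mean z-score lies below -2 or above +3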
Meaning of the calls: active = hit: reporter lowered or raised; inactive = not a hit
The screen tested about 21,000 reagents; shown is a random part of those with a known target gene and a result. Of all reagents, 503 (2.4%) were called active. 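Raw plate light values, not normalised; calls rest on replicate z-scores that were not deposited; hits include reporter decreases as well as increases.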 A number with no mark means an inactive call. Names joined by + are all predicted targets of the reagent. Reagent sequences are not shown. The record does not give: the amount of reagent, the time to read-out.

Gene | DRSC id | firefly Hh reporter signal, replicate 1 | firefly Hh reporter signal, replicate 2 | firefly Hh reporter signal, replicate 3 | Renilla reference signal, replicate 1 | Renilla reference signal, replicate 2
sob | DRSC00838 | 1.22e5 | 41180 | – | 2849 | 4058
CG18557 | DRSC00524 | 1.43e5 | 1.02e5 | – | 3402 | 2352
qvr | DRSC05280 | 1.03e5 | 2.44e5 | – | 3210 | 9269
pyd3 | DRSC15459 | 2.29e5 | 9.68e5 | 1.29e5 | 8289 | 57661
PIG-F | DRSC11069 | 1.08e5 | 1.24e5 | – | 3821 | 3538
Meltrin | DRSC16274 | 98176 | 95488 | – | 3435 | 3320
Ptpmeg2 | DRSC18277 | 62785 | 1.74e5 | – | 1853 | 6355
Ptpmeg2 | DRSC18278 | 72643 | 1.26e5 | – | 2055 | 5293
CG13215 | DRSC06337 | 1.00e5 | 72128 | – | 2276 | 6018
CG42342 | DRSC13165 | 38152 | 2.99e5 | – | 5972 | 6196
CG42342 | DRSC14378 | 1.82e5 | 21696 | – | 1452 | 1452
CG42342 | DRSC15010 | 1.85e5 | 1.64e5 | – | 6066 | 4740
CG42342 | DRSC15011 | 1.18e5 | 1.60e5 | – | 3989 | 4551
CG42342 | DRSC15012 | 1.11e5 | 92940 | – | 4176 | 2640
Pp1alpha-96A | DRSC16795 | 6.37e5 | 1.22e5 | – | 32551 | 3237
CG32507 | DRSC20421 | 7.25e5 | 5.20e5 | 2.77e5 | 38646 | 2762
CG3740 | DRSC18508 | 55650 | 2.32e5 | – | 1689 | 6996
CG7916 | DRSC01901 | 98487 | 44101 | – | 2716 | 4122
kune | DRSC04860 | 84624 | 80144 | – | 2055 | 7268
CG32069 + Blos2 | DRSC10621 | 90240 | 74358 | – | 4090 | 3056
CG33937 (retired record) | DRSC15148 | 1.24e5 | 1.21e5 | – | 3993 | 3165
RpL24-like | DRSC16111 | 67072 | 98487 | – | 2817 | 3609
CG42826 | DRSC10682 | 49394 | 88688 | 62849 | 6441 | 3826
Arp8 | DRSC20059 | 1.46e5 | 1.17e5 | – | 2772 | 2704
Spase25 | DRSC19776 | 1.06e5 | 82596 | – | 2544 | 1995
CG13995 | DRSC00907 | 7.90e5 | 8.04e5 | 3.03e5 | 38176 | 5616
CG13995 | DRSC02327 | 1.59e5 | 75948 | – | 4346 | 7504
CG44153 | DRSC01118 | 4.50e5 | 1.74e5 | – | 24051 | 7977
CG44153 | DRSC02228 | 1.14e5 | 48979 | – | 4365 | 2176
CG44153 | DRSC02229 | 1.06e5 | 28822 | – | 2720 | 3309
CG44153 | DRSC02231 | 1.27e5 | 61684 | – | 3255 | 6154
CG44153 | DRSC02233 | 88492 | 40003 | – | 2128 | 4035
CG44153 | DRSC02902 | 1.22e5 | 37720 | – | 3292 | 3846
CG44153 | DRSC02903 | 1.37e5 | 44930 | – | 3480 | 3992
Obp58c | DRSC04166 | 92082 | 68872 | – | 2320 | 5296
Non3 | DRSC16359 | 1.29e5 | 79169 | – | 5799 | 3444
ScpX | DRSC03430 | 1.18e5 | 98293 | – | 4994 | 4649
CG33116 | DRSC02045 | 41388 | 38002 | – | 2131 | 1978
CanA-14F | DRSC20211 | 49850 | 1.08e5 | – | 1538 | 3104
NimB4 | DRSC01884 | 63768 | 35265 | – | 2677 | 1428
mew | DRSC18971 | 3.94e5 | 2.25e5 | – | 22717 | 5304
mew | DRSC20352 | 60433 | 2.34e5 | – | 1530 | 7745
CG12147 | DRSC12192 | 50472 | 92438 | – | 1920 | 2091
Sirt6 | DRSC16010 | 40483 | 83104 | – | 1184 | 2512
Sec5 | DRSC00714 | 85265 | 47529 | – | 3492 | 1755
CG18278 + CG30059 | DRSC05418 | 1.95e5 | 3.56e5 | – | 5963 | 15174
CG33281 | DRSC00421 | 93792 | 35564 | – | 2389 | 3995
Corp | DRSC17771 | 95268 | 64407 | – | 2512 | 1403
Srr | DRSC16382 | 97464 | 1.54e5 | – | 2416 | 4281
CG9436 | DRSC05005 | 1.04e5 | 98273 | – | 4347 | 4115
Stt3B | DRSC16781 | 4.94e5 | 1.06e5 | – | 25729 | 3197
CG31388 | DRSC15254 | 1.74e5 | 1.19e5 | – | 7041 | 4683
CG3842 | DRSC18326 | 60244 | 1.67e5 | – | 1597 | 6282
CG43062 | DRSC12866 | 40962 | 1.89e5 | – | 9174 | 4208
CG34382 | DRSC08999 | 1.02e5 | 1.83e5 | – | 3180 | 7660
CG34382 | DRSC10166 | 43715 | 51337 | 72525 | 4588 | 5252
CG34382 | DRSC10167 | 31904 | 41052 | 49340 | 4369 | 4154
tal-1A + tal-2A + tal-AA + 1 more | DRSC12992 | 45339 | 2.09e5 | – | 9894 | 4515
CG13627 | DRSC14629 | 5.24e5 | 1.00e5 | – | 26013 | 2409
E(spl)m4-BFM | DRSC16992 | 5.98e5 | 98034 | – | 29252 | 2672
Gbeta5 | DRSC17754 | 59271 | 2.59e5 | – | 2406 | 9651
Als2 | DRSC11806 | 97122 | 72097 | – | 3883 | 3058
CG42516 + Pbp49 | DRSC06073 | 71174 | 38592 | – | 3140 | 1670
Arl5 | DRSC10785 | 90737 | 65523 | – | 4033 | 2556
CG17124 | DRSC02580 | 1.68e5 | 1.01e5 | – | 4316 | 8573
Myd88 | DRSC06815 | 63172 | 48976 | – | 2865 | 2228
CG5262 | DRSC11773 | 96595 | 73946 | – | 4041 | 3516
CG8176 | DRSC16394 | 68262 | 1.10e5 | – | 1707 | 2992
dome | DRSC19583 | 85517 | 71938 | – | 1925 | 1440
CG8301 | DRSC16405 | 78410 | 80739 | – | 2689 | 1948
CG14662 + asRNA:CR43478 | DRSC12248 | 68906 | 72811 | – | 2794 | 1160
CG7183 | DRSC16210 | 1.05e5 | 97175 | – | 4416 | 4131
CG12860 | DRSC06200 | 87824 | 42803 | – | 2186 | 3563

7 neighbouring entries from above, quoted:
Gene | DRSC id | firefly Hh reporter signal, replicate 1 | firefly Hh reporter signal, replicate 2 | firefly Hh reporter signal, replicate 3 | Renilla reference signal, replicate 1 | Renilla reference signal, replicate 2
CG18278 + CG30059 | DRSC05418 | 1.95e5 | 3.56e5 | – | 5963 | 15174
CG33281 | DRSC00421 | 93792 | 35564 | – | 2389 | 3995
Corp | DRSC17771 | 95268 | 64407 | – | 2512 | 1403
Srr | DRSC16382 | 97464 | 1.54e5 | – | 2416 | 4281
CG9436 | DRSC05005 | 1.04e5 | 98273 | – | 4347 | 4115
Stt3B | DRSC16781 | 4.94e5 | 1.06e5 | – | 25729 | 3197
CG31388 | DRSC15254 | 1.74e5 | 1.19e5 | – | 7041 | 4683
